Data from publication PMC5053705.
Results are given in words; binding and its absence hold for the method and conditions named. In cells and extracts the contact can be indirect. Some binding calls cover weakened binding; strength is not graded here.

Amino acid sequences for entries named in this document (tags omitted).
UniProt Q9NQB0: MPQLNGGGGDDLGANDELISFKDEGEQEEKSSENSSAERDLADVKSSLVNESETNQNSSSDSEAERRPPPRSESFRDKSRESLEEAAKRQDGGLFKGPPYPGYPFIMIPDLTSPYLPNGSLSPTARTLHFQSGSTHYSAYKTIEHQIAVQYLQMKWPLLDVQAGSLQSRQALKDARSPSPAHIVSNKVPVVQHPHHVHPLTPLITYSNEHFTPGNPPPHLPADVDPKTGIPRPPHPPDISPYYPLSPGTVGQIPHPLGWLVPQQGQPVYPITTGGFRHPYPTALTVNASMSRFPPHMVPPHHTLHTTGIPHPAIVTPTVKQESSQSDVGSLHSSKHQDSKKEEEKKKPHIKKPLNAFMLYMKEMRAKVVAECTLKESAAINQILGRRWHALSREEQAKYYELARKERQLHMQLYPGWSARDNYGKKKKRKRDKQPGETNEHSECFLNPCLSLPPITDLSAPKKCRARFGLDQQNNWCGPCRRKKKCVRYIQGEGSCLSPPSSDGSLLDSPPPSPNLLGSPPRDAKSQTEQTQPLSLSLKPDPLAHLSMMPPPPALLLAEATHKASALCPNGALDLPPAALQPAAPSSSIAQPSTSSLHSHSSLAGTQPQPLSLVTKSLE
UniProt P35222: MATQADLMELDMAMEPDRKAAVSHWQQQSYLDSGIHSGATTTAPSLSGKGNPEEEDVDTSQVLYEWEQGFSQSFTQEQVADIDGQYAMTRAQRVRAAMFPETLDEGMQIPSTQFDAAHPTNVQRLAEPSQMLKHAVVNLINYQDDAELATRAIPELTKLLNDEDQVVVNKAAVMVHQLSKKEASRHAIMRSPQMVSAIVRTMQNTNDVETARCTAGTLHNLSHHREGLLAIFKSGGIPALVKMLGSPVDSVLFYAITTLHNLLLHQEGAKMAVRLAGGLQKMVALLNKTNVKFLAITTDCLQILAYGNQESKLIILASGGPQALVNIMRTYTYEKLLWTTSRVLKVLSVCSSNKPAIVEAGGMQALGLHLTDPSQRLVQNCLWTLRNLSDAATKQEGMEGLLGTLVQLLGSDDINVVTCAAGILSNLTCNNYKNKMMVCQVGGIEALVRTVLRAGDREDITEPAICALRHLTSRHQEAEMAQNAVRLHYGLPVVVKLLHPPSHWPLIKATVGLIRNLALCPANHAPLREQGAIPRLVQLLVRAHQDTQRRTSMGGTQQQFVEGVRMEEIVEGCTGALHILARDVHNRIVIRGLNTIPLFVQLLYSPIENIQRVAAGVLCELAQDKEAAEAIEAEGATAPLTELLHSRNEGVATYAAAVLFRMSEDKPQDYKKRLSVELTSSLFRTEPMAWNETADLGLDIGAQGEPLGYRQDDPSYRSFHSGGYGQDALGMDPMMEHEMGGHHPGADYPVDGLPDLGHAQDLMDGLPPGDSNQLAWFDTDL
UniProt Q9BT81: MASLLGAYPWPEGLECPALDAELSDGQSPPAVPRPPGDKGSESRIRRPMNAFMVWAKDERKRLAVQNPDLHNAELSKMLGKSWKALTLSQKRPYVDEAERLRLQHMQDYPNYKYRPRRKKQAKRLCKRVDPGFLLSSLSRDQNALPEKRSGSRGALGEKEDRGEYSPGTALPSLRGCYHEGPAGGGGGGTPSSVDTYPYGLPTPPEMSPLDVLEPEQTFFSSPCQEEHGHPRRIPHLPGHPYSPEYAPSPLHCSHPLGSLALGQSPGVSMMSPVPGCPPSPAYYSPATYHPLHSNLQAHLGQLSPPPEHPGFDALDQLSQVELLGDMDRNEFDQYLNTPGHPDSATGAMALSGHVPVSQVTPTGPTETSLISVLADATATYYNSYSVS

How the values were obtained:
[1] = biological target: Myc/TCF4 (UniProt Q9NQB0); assay: co-IP; HEK293 cells transiently co-transfected with HA/SOX7 and Myc/β-catenin or Myc/TCF4; Dynabeads co-immunoprecipitation kit; Western blot of lysate and eluate; IgG as control antibody
[2] = biological target: Myc/β-catenin (UniProt P35222); assay: as above

binding [1]: binds
binding [2]: binds
Substance: HA/SOX7 (from UniProt Q9BT81 1-388)
